Test [1] has as its target T1, p16^INK4a-PPI reporter (pcDNA3.1-p16^INK4a-F[2]) (mouse) (UniProt P51480).
T1 sequence: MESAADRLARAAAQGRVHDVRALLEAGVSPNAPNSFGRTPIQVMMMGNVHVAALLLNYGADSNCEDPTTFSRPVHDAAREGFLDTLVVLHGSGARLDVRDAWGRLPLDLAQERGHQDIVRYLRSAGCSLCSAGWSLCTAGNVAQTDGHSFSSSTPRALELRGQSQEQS
The test is described as follows: split reporter; Renilla luciferase protein-fragment complementation (RLuc PCA) PPI reporter: CDK4/CDK6-F[1] and p16^INK4a-F[2] (C-terminal fusions) transiently co-expressed for 48 hr in HEK293T cells, 24-well format; bioluminescence of intact cells in PBS after addition of h-coelenterazine.

By UniProt entry, the sequences of proteins in these tests, tags left out. Where a name states a change or a piece, a line headed by the entry shows the natural chain unless it says otherwise.
UniProt Q64261: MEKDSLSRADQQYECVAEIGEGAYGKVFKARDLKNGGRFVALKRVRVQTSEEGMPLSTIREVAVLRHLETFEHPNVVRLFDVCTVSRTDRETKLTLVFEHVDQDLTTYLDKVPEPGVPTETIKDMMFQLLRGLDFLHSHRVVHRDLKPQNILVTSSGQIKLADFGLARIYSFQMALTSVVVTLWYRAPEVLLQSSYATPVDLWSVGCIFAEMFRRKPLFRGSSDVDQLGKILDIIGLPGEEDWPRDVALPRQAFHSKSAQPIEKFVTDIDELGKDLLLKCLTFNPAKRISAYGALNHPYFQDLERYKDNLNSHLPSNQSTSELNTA

For test [2], the target named is T2, p16^INK4a-PPI reporter (P40L) (pcDNA3.1-p16^INK4a-P40L-F[2]) (mouse) (UniProt P51480).
T2 sequence: T1 sequence with P40L
The test is described as above.

Substitutions are numbered along the chain they refer to. In names and notes the source's numbering stands. Results are given in words; binding and its absence hold for the method and conditions named. In cells and extracts the contact can be indirect. Some binding calls cover weakened binding; strength is not graded here.

For “CDK6-PPI reporter (R31C) (pcDNA3.1-CDK6-R31C-F[1]) (from UniProt Q64261 1-326) (enzyme)”, the binding entry in test [1] is “binds”. On to “CDK6-PPI reporter (pcDNA3.1-CDK6-F[1]) (from UniProt Q64261 1-326) (enzyme)”, for which the binding result is reported as “no binding” in test [2] and “binds” in test [1].

B1: CDK4-PPI reporter (pcDNA3.1-CDK4-F[1]) (enzyme, UniProt P30285 1-303)
chain: MAATRYEPVAEIGVGAYGTVYKARDPHSGHFVALKSVRVPNGGAAGGGLPVSTVREVALLRRLEAFEHPNVVRLMDVCATSRTDRDIKVTLVFEHIDQDLRTYLDKAPPPGLPVETIKDLMRQFLSGLDFLHANCIVHRDLKPENILVTSNGTVKLADFGLARIYSYQMALTPVVVTLWYRAPEVLLQSTYATPVDMWSVGCIFAEMFRRKPLFCGNSEADQLGKIFDLIGLPPEDDWPREVSLPRGAFAPRGPRPVQSVVPEMEESGAQLLLEMLTFNPHKRISAFRALQHSYLHKEESDAE
As to B1, the binding result in test [2] is “no binding”; in test [1] it was “binds”.

B2: CDK4-PPI reporter (R24C) (pcDNA3.1-CDK4-R24C-F[1]) (enzyme, UniProt P30285 1-303)
chain: B1 chain with R24C
As for B2, the binding entry in test [1] was “binds”.
